Experimental data as given in PubChem BioAssay (NCATS).
Inconclusive results, whose numbers are uncertain, are shown with a selection of clear calls. For part of these data: Where the call is inconclusive, the potency comes from a doubtful curve fit. Calls of active or inactive are those of the source. Unless noted, the call rests on the fitted dose curve; in most records, active means well fitted curve in the direction sought with a large enough effect; inconclusive means small, poorly fitted or top-dose-only effect, or another doubt; inactive means no such curve, though single readings can be large; an effect the other way counts as inactive or inconclusive.

Amino acid sequences for entries named in this document (tags omitted). A change or cut given only in a name is not applied to a line headed by its entry.
UniProt P54132: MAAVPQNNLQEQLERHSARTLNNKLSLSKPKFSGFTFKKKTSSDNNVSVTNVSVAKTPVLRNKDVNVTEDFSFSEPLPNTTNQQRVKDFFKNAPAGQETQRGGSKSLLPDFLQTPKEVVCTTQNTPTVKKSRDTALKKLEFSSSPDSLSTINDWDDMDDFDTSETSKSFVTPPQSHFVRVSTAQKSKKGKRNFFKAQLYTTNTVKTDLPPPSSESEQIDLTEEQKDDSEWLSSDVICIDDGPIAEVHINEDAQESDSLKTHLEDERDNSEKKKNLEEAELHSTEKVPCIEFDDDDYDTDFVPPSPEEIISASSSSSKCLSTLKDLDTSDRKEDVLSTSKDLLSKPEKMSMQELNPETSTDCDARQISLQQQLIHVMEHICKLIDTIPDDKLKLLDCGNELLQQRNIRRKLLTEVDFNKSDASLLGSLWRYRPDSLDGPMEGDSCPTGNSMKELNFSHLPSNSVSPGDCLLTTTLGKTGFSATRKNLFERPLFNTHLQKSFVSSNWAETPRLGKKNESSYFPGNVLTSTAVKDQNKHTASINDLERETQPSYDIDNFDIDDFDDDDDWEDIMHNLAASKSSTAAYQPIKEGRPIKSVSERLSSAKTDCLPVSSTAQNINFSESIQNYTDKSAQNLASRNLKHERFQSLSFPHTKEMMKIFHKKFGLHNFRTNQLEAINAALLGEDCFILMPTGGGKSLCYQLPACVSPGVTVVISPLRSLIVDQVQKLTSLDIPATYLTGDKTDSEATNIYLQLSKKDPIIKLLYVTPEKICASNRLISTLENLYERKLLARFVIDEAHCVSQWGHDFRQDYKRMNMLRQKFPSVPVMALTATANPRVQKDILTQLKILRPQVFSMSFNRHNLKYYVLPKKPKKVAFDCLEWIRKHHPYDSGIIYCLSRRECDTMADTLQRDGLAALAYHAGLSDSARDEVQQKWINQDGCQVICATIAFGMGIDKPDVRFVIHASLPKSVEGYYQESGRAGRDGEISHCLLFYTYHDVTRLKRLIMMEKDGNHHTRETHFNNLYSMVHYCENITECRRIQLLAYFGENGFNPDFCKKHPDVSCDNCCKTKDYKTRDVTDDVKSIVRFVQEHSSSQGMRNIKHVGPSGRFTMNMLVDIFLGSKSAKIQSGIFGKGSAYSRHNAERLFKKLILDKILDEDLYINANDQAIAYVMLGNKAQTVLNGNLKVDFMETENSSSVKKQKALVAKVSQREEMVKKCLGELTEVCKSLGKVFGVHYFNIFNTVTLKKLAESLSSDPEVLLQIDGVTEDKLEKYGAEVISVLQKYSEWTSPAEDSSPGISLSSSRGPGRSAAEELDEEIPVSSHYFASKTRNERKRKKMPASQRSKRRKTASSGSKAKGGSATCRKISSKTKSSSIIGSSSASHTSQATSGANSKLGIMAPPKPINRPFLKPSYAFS
UniProt O15648: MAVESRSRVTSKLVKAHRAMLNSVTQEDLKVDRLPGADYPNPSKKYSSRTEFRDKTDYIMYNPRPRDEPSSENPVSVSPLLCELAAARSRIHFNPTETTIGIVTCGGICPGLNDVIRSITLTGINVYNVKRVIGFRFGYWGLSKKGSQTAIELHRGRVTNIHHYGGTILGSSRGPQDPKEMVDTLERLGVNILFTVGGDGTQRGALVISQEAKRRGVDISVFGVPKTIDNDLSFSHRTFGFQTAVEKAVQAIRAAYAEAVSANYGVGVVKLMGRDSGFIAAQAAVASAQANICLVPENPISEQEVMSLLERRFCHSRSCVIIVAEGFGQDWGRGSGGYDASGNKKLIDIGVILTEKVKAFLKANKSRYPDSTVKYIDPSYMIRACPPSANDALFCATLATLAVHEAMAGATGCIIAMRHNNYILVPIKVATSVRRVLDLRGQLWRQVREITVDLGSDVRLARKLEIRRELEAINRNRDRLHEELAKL
UniProt Q96QE3: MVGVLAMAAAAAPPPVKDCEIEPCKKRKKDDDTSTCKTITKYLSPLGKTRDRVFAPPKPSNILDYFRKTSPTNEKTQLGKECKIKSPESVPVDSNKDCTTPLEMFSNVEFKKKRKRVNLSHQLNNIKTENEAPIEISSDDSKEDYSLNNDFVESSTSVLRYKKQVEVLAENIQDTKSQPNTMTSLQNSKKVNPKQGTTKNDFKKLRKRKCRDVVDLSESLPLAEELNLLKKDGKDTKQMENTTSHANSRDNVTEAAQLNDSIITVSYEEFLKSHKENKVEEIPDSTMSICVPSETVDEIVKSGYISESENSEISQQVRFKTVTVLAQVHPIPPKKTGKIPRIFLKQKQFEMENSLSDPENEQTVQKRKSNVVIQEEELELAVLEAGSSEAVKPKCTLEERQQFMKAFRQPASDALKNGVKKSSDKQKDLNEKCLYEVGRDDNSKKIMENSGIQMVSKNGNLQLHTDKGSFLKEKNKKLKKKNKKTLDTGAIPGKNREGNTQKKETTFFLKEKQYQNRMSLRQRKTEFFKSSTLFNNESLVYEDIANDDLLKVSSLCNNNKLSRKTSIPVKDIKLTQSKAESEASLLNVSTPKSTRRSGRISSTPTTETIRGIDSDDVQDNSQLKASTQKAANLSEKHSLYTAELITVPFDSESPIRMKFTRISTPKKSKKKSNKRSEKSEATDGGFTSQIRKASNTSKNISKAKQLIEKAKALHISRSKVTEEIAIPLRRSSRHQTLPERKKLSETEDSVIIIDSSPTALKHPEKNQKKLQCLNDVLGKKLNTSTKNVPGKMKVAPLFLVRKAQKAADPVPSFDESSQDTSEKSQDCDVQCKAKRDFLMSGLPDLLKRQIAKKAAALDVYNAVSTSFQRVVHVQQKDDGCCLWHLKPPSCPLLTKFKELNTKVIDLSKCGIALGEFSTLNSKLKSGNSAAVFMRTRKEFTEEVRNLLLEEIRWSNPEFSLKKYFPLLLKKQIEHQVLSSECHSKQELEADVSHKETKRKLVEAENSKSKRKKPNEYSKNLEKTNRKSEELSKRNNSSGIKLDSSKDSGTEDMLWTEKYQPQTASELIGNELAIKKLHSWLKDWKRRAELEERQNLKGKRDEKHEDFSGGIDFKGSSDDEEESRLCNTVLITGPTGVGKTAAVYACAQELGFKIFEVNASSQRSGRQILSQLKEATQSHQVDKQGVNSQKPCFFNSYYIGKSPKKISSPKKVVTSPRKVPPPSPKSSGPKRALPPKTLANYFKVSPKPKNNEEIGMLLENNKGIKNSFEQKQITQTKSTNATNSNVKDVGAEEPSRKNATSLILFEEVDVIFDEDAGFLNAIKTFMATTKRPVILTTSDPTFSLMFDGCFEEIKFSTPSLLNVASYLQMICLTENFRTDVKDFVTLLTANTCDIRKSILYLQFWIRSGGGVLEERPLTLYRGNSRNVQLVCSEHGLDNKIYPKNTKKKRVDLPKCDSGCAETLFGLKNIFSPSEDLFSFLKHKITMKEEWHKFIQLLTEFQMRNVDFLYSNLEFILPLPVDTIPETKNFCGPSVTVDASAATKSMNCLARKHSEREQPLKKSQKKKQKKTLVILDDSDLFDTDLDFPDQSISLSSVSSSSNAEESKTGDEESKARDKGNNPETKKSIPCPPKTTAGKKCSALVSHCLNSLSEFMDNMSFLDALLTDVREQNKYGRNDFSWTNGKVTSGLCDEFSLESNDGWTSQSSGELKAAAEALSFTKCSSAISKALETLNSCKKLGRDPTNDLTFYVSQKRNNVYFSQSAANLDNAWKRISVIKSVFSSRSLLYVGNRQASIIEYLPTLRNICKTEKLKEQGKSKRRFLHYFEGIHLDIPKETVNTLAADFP
UniProt Q13526, whole entry, looked up: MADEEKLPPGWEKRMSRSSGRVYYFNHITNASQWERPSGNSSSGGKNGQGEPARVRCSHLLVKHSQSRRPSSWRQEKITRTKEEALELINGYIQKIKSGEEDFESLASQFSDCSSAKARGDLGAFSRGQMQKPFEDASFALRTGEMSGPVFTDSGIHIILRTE

Legend:
[1] = Stat Signaling Pathway (AID 446; active means well fitted curve in either direction with a large enough effect, not every such curve was filed as active; inconclusive means small, poorly fitted or top-dose-only effect, or another doubt;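 further: ME-180 cervical cancer cells given 40 pM IL-6 alongside compound; SIE-controlled beta-lactamase reporter measured as 460/530 nm FRET emission ratio; on the % scale 0 is the no-effect control and ±100 the full control effect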); details: ME-180 SIE beta-lactamase reporter, IL-6 stimulated, 5 h; at 38 µM (top of the series)
In short: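 ME-180 cells carrying a SIE-driven beta-lactamase reporter are stimulated with 40 pM IL-6 for 5 h at 37C in the presence of compound. The 460/530 nm FRET substrate ratio is read after 2.5 h at RT. Data are normalised to 300 pM IL-6 and to 125 nM JAK inhibitor controls.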

[2] = target: Mitogen-activated protein kinase 10 (Mus musculus) (UniProt Q61831); assay: JNK3 AlphaScreen Assay (AID 530; active means well fitted curve in either direction with a large enough effect, not every such curve was filed as active; inconclusive means small, poorly fitted or top-dose-only effect, or another doubt;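 further: kinase came from lysate of stimulated human HepG2 cells; potency means the concentration at half of the fitted maximal effect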); details: JNK3 lysate, c-Jun phosphorylation; activity change, negative = inhibition: at 57.1 µM (top of the series)
In short: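 Pre-activated (IL-1β/TNFα) JNK3 in HepG2 lysates phosphorylates biotin-GST-cJun(1-79), 10 uM ATP; anti-phospho-cJun(Ser73) AlphaScreen read at room temperature, pH 7.6 Tris buffer. Compounds pre-incubated 15 min as titrations.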

[3] = qHTS Assay for Identification of Small Molecule Agonists for Thrombopoietin (TPO) Signaling Pathway (AID 917); further: on the % scale 0 is the no-effect control and ±100 the full control effect
In short: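 Activators of TPO signaling were sought in murine Ba/F3 cells transfected with the human receptor, using a luciferase gene driven by the Glycoprotein IIb promoter; 24-hr compound exposure at 37 C alongside 26 pM TPO, in IL-3-free medium.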

[4] = qHTS Assay for Identification of Small Molecule Antagonists for Thrombopoietin (TPO) Signaling Pathway (AID 918); details: TPO-dependent cell signaling reporter, antagonist mode; activity change, negative = inhibition: at 38.5 µM (top of the series)
In short: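 Murine Ba/F3 cells expressing human TPO receptor and a Glycoprotein IIb promoter-luciferase reporter, IL-3-starved overnight, treated with compound plus TPO at EC50 (26 pM final). After 24 h at 37 C, luminescence read to detect inhibitors.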

[5] = Validation of Assay for Modulators of Lamin A Splicing (AID 1459; active means well fitted curve in the direction sought with a large enough effect in the signal ratio; inconclusive means small, poorly fitted or top-dose-only effect, or effect the other way, or a change in a side signal; inactive means no such curve, though single readings can be large or run the other way; the % refers to the signal ratio;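 further: cells exposed to compound for two days before reading; 0% is about no effect; ratio rise marks activators and ratio drop marks inhibitors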); details: Lamin A splicing dual RFP/GFP fluorescence reporter; Potency: ratio unless noted; ratio change, both ways: at 9.22 µM unless noted
In short: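 Readout: ratio of GFP (500-530 nm) to RFP (575-640 nm) total object intensity by 488 nm laser-scanning cytometry after 48 hrs. Cells were HeLa S3 clones carrying lamin A-EGFP minigene plus DsRed2 viability reporter; vehicle 0.5% DMSO final.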

[6] = qHTS for differential inhibitors of proliferation of Plasmodium falciparum line GB4 (AID 1816); details: Potency: Plasmodium falciparum GB4 proliferation inhibition;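 further: parasite growth measured after 72 h incubation; 0% = vehicle DMSO and -100% = reference inhibitor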
[7] = qHTS Assay for Modulators of Human Peripheral Myelin Protein 22 (PMP22) Expression/Activity (AID 1967; active means well fitted curve in the direction sought with a large enough effect in the signal ratio; inconclusive means small, poorly fitted or top-dose-only effect, or effect the other way, or a change in a side signal; inactive means no such curve, though single readings can be large or run the other way; the % refers to the signal ratio;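 further: 0% = untreated cells and 100% end not stated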); details: Cell-based PMP22 reporter, dual-color luciferase ratio, mouse Pmp22 promoter in mouse Schwann cells; activity change (ratio): at 115 µM (top of the series), 0% = compound-free control cells
In short: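 Mouse MSC80 Schwann line, Pmp22 promoter–CBG68 reporter, EF-alpha–CBR internal control. 24h compound exposure, 37 °C/5% CO2, DMEM + 10% FBS. Readout: corrected green/red luminescence ratio, normalized to untreated cells; concentration-response curves fitted and classified.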

[8] = target: RecQ-like DNA helicase BLM (Homo sapiens) (UniProt P54132); assay: qHTS Validation Assay for Inhibitors of Bloom's syndrome helicase (BLM) (AID 2364);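 further: plate controls were DMSO vehicle for no effect and enzyme-free control for full effect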
In short: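 50 nM BLM preincubated 15 min at room temperature with compound in pH 8.0 Tris buffer containing 2.5 ug/ml poly(dI-dC); started with 200 nM TAMRA/BHQ-2 forked duplex and 2 mM ATP (final). Unwinding read as TAMRA fluorescence increase, two reads 2 h apart.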

[9] = qHTS Validation Assay to Find Inhibitors of Chronic Active B-Cell Receptor Signaling (AID 485345; active means well fitted curve in the direction sought with a large enough effect in the main read-out, with a control signal flat, not every such curve was filed as active; inconclusive means small, poorly fitted or top-dose-only effect, or effect the other way, or a change in a side signal; inactive means no such curve, though single readings can be large or run the other way;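 further: 0% = untreated basal cells and 100% = 10 µM MG-132 proteasome inhibitor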); details: ABC-DLBCL cells, chronic BCR signaling reporter; activity change: CBG luciferase, at 46.1 µM (top of the series)
In short: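 TMD8 ABC-DLBCL cells stably carrying doxycycline-inducible IkappaBalpha–green luciferase fusion plus unfused red luciferase; compounds 46 uM to 3 nM, 4 h at 37C with doxycycline. Corrected green/red luminescence ratio normalized to 10 uM MG-132 and basal cell wells; curves fitted.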

[10] = target: ATP-dependent 6-phosphofructokinase (Trypanosoma brucei brucei) (UniProt O15648); assay: qHTS Validation Assay to Find Inhibitors of T. brucei phosphofructokinase (AID 485368); details: activity change, negative = inhibition: at 57.5 µM (top of the series); further: potency means the concentration at half of the fitted maximal effect
In short: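 Activity was read as ADP production by luminescence (ADP-Glo) after 45 min at room temperature. The enzyme was 1.25nM PFK in 0.1M TEA pH 8.0 with 0.5 mM F6P, 0.1mM ATP and 5 mM MgCl2. Compounds were titrated up to 57 uM and % activity normalized to no-enzyme and full-enzyme controls.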

[11] = Quantitative high throughput screen for delayed death inhibitors of the malarial parasite plastid, 96 hour incubation (AID 488745); further: potency means the concentration at half of the fitted maximal effect; nearly all actives have a fitted effect of over 70% in size
In short: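 Luciferase-expressing P. falciparum in erythrocytes (2% hematocrit, 0.1% parasitemia) incubated with compound for 96 h at 37 C, 5% CO2, in RPMI 1640 with 0.5% Albumax. Growth inhibition read as decreased luminescence.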

[12] = target: ATPase family AAA domain-containing protein 5 (Homo sapiens) (UniProt Q96QE3); assay: Validation screen for small molecules that inhibit ELG1-dependent DNA repair in human embryonic kidney (HEK293T) cells expressing luciferase-tagged ELG1 (AID 493107); details: HEK293T ELG1-luciferase level, luminescence, 5-fluorouridine co-treatment, 16 h; activity change, negative = decrease: at 46.1 µM (top of the series); further: potency means the concentration at half of the fitted maximal effect; nearly all actives have a fitted effect of over 70% in size
In short: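 HEK293T cells expressing luciferase-tagged ELG1, 2,000 per well, treated with 5-fluorouridine plus compound for 16 h at 37 C. ONE-Glo luminescence after 30 min at room temperature reports ELG1 reporter level.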

[13] = target: Peptidyl-prolyl cis-trans isomerase NIMA-interacting 1 (Homo sapiens) (UniProt Q13526); assay: qHTS Validation Assay to Find Inhibitors of Pin1 (AID 504536; active means well fitted inhibition curve with a large enough effect in the polarisation, with a control signal flat, not every such curve was filed as active; inconclusive means small, poorly fitted or top-dose-only effect, or effect the other way; the % refers to the polarisation;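 further: 0% = full Pin1 enzyme wells and -100% = no-enzyme wells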)
In short: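 Fluorescence polarization competition: compounds (titration) displace HiFluor-488-labeled Pin1-1b peptide from Pin1 (0.3 uM final) in pH 7.5 HEPES buffer with DTT, 10 min at room temperature; %Activity normalized to no-enzyme wells, curves fitted.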

[14] = Natriuretic polypeptide receptor (hNpr1) antagonism - Pilot counterscreen GloSensor control cell line (AID 1347045; calls by dose curve; further: on the % scale 0 is the no-effect control and ±100 the full control effect)
In short: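 HEK293 cGMP GloSensor cells preloaded 2 h with 2% GloSensor reagent, then compound 30 min before baseline luminescence read. Stimulated with 50 uM sodium nitroprusside, 20 min at room temperature, then read again; counterscreen for Npr1 antagonism.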

[15] = qHTS of pediatric cancer cell lines to identify multiple opportunities for drug repurposing: Primary screen for A673 cells (AID 1347092); details: A673 Ewing sarcoma viability, CellTiter-Glo ATP luminescence, 48 h; activity change, negative = cytotoxic: at 46 µM (top of the series); further: on the % scale 0 is the no-effect control and ±100 the full control effect; nearly all actives have a fitted effect of over 45% in size
In short: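 48 h compound exposure, A673, 500-1,000 cells/well, 37 degrees C/5% CO2. MIPE: 11-point, 0.78 nM-46 µM; NPC: 8-point, 0.59 nM-46 µM (final). Readout CellTiter-Glo luminescence after 15 min RT.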

[16] = qHTS of pediatric cancer cell lines to identify multiple opportunities for drug repurposing: Primary screen for NB1643 cells (AID 1347099); details: NB1643 neuroblastoma viability, CellTiter-Glo luminescence, 48 h; activity change, negative = cytotoxic: at 46 µM (top of the series);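 further: plate controls were DMSO neutral control for no effect and bortezomib positive control for full effect; nearly all actives have a fitted effect of over 50% in size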
In short: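 Following a 5-hour attachment period, cells at 500-1,000/well received compounds and were cultured for 48 hours. CellTiter-Glo was added and luminescence read to estimate viable, metabolically active cells.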

[17] = qHTS of pediatric cancer cell lines to identify multiple opportunities for drug repurposing: Primary screen for Rh30 cells (AID 1347107); further: on the % scale 0 is the no-effect control and ±100 the full control effect; nearly all actives have a fitted effect of over 75% in size
In short: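 Viability after 48 h compound treatment at 37C, 500-1,000 cells/well, read as ATP luminescence with CellTiter-Glo. Primary screens used 11-point (MIPE, 0.78 nM-46 µM) or 8-point (NPC, 0.59 nM-46 µM) final concentrations; follow-up screens used 11-point dilutions.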

[18] = Primary qHTS for small molecule stabilizers of the endoplasmic reticulum resident proteome: Secreted ER Calcium Modulated Protein (SERCaMP) assay (AID 1508630); details: SH-SY5Y GLuc-SERCaMP (Gaussia luciferase released on ER calcium loss) secretion, thapsigargin, luminescence; activity change, negative = inhibition: at 38.4 µM (top of the series) unless noted; further: potency means the concentration at half of the fitted maximal effect
In short: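 GLuc-SERCaMP-expressing SH-SY5Y cells, pretreated 16 h with compound, are challenged with thapsigargin to empty ER calcium stores; after 4 h, coelenterazine is added directly to the medium and luminescence is imaged.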

HeLa = assay: Primary qHTS to identify gynecologic anti-cancer compounds using libraries of approved drugs and bioactive compounds (AID 1345084); details: Gynecologic cancer cell panel viability, ATPlite luminescence, 48 h; series mostly up to 57.5 µM; further: on the % scale 0 is the no-effect control and ±100 the full control effect; nearly all actives have a fitted effect of over 55% in size
In short: (§1)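 Cytotoxicity screen measuring ATP content by luciferase luminescence. Each compound is applied at five concentrations for 48 h at 37 C with 5% CO2.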

Tov112D = assay: as above; details: Gynecologic cancer cell panel viability, ATPlite luminescence, 48 h; series mostly up to 57.5 µM
In short: as §1

[19] = Drug repurposing screens with cells derived from glioblastoma tumor samples (AID 1345199); details: GBM patient neurospheres viability, ATP luminescence, 48 h; Potency: tumour line A unless noted; activity, negative = cell killing: at 46 µM (top of the series), tumour line A unless noted; further: potency means the concentration at half of the fitted maximal effect; nearly all actives have a fitted effect of over 40% in size
In short: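 Four patient lines of CD133+ GBM neurospheres were screened at several concentrations; hits were retested in those lines plus three slower-growing GBM lines, using 48-hour treatment and ATP-based viability.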

[20] = qHTS profiling for inhibitors of Plasmodium falciparum proliferation (AID 504749); further: nearly all actives have a fitted effect of over 60% in size; further: potency means the concentration at half of the fitted maximal effect;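 on activity, negative = inhibition: 0% = DMSO vehicle and full inhibition = artemisinin control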; details: P. falciparum in erythrocytes, SYBR Green DNA, 72 h; Potency: parasite line B unless noted; series mostly up to 28.7 µM
In short: (§2)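 P. falciparum-infected erythrocytes (0.3% parasitemia, 2.5% hematocrit) incubated with compound 72 h at 37 C, 5% CO2. Parasite DNA detected by SYBR Green after lysis, overnight at room temperature; normalised to 0.29 uM artemisinin and DMSO.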

ATS95 = assay: as above; details: P. falciparum in erythrocytes, SYBR Green DNA, 72 h; series mostly up to 28.7 µM
In short: as §2

CP185 = assay: as above; details: P. falciparum in erythrocytes, SYBR Green DNA, 72 h; series mostly up to 28.7 µM
In short: as §2

CP217 = assay: as above; details: P. falciparum in erythrocytes, SYBR Green DNA, 72 h; series mostly up to 28.7 µM
In short: as §2

CP252 = assay: as above; details: P. falciparum in erythrocytes, SYBR Green DNA, 72 h; series mostly up to 28.7 µM
In short: as §2

CP256 = assay: as above; details: P. falciparum in erythrocytes, SYBR Green DNA, 72 h; series mostly up to 28.7 µM
In short: as §2

DIV30 = assay: as above; details: P. falciparum in erythrocytes, SYBR Green DNA, 72 h; series mostly up to 28.7 µM
In short: as §2

N140 = assay: as above; details: P. falciparum in erythrocytes, SYBR Green DNA, 72 h; series mostly up to 28.7 µM
In short: as §2

P93_24 = assay: as above; details: P. falciparum in erythrocytes, SYBR Green DNA, 72 h; series mostly up to 28.7 µM
In short: as §2

PC15 = assay: as above; details: P. falciparum in erythrocytes, SYBR Green DNA, 72 h; series mostly up to 28.7 µM
In short: as §2

TAB109 = assay: as above; details: P. falciparum in erythrocytes, SYBR Green DNA, 72 h; series mostly up to 28.7 µM
In short: as §2

W2 = assay: as above; details: P. falciparum in erythrocytes, SYBR Green DNA, 72 h; activity, negative = inhibition: at 28.7 µM (top of the series)
In short: as §2

CC(C)NNC(=O)c1ccncc1
inactive: Potency [3] | Potency [6] | Potency [8] | Potency [9] | Potency [13] | Potency [14] | Potency [15] | Potency [16] | Potency [17] | Potency (HeLa) | Potency (Tov112D) | Potency (CP185) | Potency (DIV30) | Potency (P93_24) | Potency (PC15) | Potency (W2)
inconclusive: activity, negative = inhibition [1] -50.9% [inhibitor] | Potency [2] 10 µM [activator, partial curve] | activity change, negative = inhibition [4] -2.2% [phenotype inactive] | ratio change, both ways [5] 2.68% | activity change (ratio) [7] 0.157% | Potency [10] 0.0048 µM [activator, full curve, poor fit] | Potency [11] 4.15 µM [activator, single point] | Potency [12] 6.51 µM [activator, single point] | Potency [18] 1 µM [inhibitor, full curve] | Potency [19] 10 µM [inhibitor, partial curve, poor fit] | Potency [20] 7.08 µM [inhibitor, partial curve] | Potency (ATS95) 8.91 µM [inhibitor, partial curve] | Potency (CP217) 7.94 µM [inhibitor, partial curve] | Potency (CP252) 8.91 µM [inhibitor, partial curve] | Potency (CP256) 7.08 µM [inhibitor, partial curve] | Potency (N140) 7.94 µM [inhibitor, partial curve, poor fit] | Potency (TAB109) 12.6 µM [inhibitor, partial curve]
